Among the data in patent publication US20250002610A1 are binding values, retold here.

The target in assay [1] is T1, pig DR4 with death domain deletion on ExpiCHO-S cells (pig (Sus scrofa)).
T1 sequence: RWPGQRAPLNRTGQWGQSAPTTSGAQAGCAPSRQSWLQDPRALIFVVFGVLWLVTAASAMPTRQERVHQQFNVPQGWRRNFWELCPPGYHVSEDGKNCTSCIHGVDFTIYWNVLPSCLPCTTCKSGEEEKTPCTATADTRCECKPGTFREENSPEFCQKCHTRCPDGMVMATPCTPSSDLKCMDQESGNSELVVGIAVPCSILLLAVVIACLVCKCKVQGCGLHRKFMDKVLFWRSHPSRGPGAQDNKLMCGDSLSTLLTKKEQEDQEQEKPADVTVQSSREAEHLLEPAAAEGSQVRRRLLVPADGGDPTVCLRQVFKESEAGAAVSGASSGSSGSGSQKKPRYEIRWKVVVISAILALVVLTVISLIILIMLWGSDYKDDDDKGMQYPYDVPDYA
Kind of assay: flow cytometry, ExpiCHO-S cells expressing pig DR4.

Assay [2] has as its target T2, rabbit DR4 with death domain deletion on ExpiCHO-S cells (rabbit (Oryctolagus cuniculus)).
T2 sequence: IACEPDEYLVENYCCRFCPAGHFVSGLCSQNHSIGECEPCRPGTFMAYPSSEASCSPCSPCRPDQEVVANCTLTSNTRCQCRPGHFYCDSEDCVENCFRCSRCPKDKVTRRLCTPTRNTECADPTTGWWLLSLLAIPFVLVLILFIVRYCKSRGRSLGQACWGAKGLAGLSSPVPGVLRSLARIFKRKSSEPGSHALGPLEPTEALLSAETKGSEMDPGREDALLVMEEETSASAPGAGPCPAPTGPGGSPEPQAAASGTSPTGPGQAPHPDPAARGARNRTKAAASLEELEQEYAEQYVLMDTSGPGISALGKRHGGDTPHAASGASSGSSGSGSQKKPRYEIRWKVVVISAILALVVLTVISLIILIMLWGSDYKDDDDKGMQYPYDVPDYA
Kind of assay: flow cytometry, ExpiCHO-S cells expressing rabbit DR4. On the technique in general: A flow cytometer gives signals particle by particle.

The target in assay [3] is T3, mouse DR with death domain deletion on ExpiCHO-S cells (mouse (Mus musculus)).
T3 sequence: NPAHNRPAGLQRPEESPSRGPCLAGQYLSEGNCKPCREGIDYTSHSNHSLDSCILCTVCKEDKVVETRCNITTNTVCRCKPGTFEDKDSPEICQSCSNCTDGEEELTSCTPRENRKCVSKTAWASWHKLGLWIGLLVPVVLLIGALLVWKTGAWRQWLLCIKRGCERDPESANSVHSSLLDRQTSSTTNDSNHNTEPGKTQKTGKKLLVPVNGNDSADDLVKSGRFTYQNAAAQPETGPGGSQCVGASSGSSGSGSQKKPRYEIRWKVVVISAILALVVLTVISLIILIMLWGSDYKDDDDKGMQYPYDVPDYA
Description: flow cytometry, ExpiCHO-S cells expressing mouse DR.

For assay [4], the target named is T2, rabbit DR4 with death domain deletion on ExpiCHO-S cells (rabbit (Oryctolagus cuniculus)). Description: flow cytometry on ExpiCHO-S cells transiently expressing rabbit DR4 (death domain deleted), gMFI PE; concentration of the bars not given.
The target of assay [5] is T4, dog DR4 with death domain deletion on ExpiCHO-S cells (dog (Canis familiaris)).
T4 sequence: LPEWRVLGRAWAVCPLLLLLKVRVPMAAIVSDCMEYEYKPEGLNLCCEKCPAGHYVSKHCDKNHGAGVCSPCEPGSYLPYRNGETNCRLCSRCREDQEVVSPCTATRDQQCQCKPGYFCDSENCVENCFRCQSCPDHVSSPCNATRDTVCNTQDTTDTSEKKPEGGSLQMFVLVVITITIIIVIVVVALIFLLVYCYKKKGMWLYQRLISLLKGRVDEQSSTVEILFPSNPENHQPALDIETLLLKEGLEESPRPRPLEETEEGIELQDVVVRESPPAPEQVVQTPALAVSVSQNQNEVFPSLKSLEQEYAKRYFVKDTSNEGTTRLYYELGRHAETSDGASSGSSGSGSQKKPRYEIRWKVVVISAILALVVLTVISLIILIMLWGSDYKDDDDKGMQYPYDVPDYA
Kind of assay: flow cytometry, ExpiCHO-S cells expressing dog DR4.

In assay [6] the target is T3, mouse DR with death domain deletion on ExpiCHO-S cells (mouse (Mus musculus)). Description: flow cytometry on ExpiCHO-S cells transiently expressing mouse DR (death domain deleted), gMFI PE; concentration of the bars not given.
Assay [7] deals with T4, dog DR4 with death domain deletion on ExpiCHO-S cells (dog (Canis familiaris)). Kind of assay: flow cytometry on ExpiCHO-S cells transiently expressing dog DR4 (death domain deleted), gMFI PE; concentration of the bars not given.
The target in assay [8] is T1, pig DR4 with death domain deletion on ExpiCHO-S cells (pig (Sus scrofa)). Kind of assay: flow cytometry on ExpiCHO-S cells transiently expressing pig DR4 (death domain deleted), gMFI PE; concentration of the bars not given.

Results are given in words; binding and its absence hold for the method and conditions named.

B1: IgG1-DR4-FERR (antibody, V domains shown)
VH: QVQLQESGPGLVKPSGTLSLTCAVSGGSISSYSWWSWIRQPPGKGLEWIGELYHSGSTNYNPSLKSRVTISVDKSKNQFSLKLRSVTAADTAVYYCVRGVATIDYWGQGTLVTVSS
VL: QSALTQPPSASGSPGQSVTISCTGTSSDVGGYNFVSWYQQDPGKAPKLLIYEVTKRPSGVPDRFSGSKSGNTASLTVSGLQAEDEADYYCSSYAGSNNVMFGGGTKLTVLG
As for B1, the binding entry is “no binding (tested: 30 µg/mL)” in assay [1]; “no binding (tested: 30 µg/mL)” in assay [2]; “no binding (tested: 30 µg/mL)” in assay [3]; “no binding” in assay [4]; “no binding (tested: 30 µg/mL)” in assay [5]; “no binding” in assay [6]. For the same molecule, the binding entry in assay [7] and in assay [8] was “no binding” in each case.
